Tested on: HDAC active isolates from HeLa cytosolic extract
Assay: Fluorescence-based HDAC activity assay, HeLa cytosolic extract

Structure (SMILES): O=C(CCCCCCC(=O)Nc1ccccc1)NO [SAHA, reference compound]
- times more HDAC inhibiting in the cytosolic than in the nuclear fraction: 2.5 times
